Measured data: PubChem BioAssay AID686938 (Drosophila RNAi Screening Center, 2013)
The screen tested about 23,000 reagents; shown is an unselected part of those that have a named target and a result. Of all reagents, 75 (0.33%) were called active. 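Raw plate signals without normalisation; calls rest on plate z-scores that were not deposited; ratio present for only 364 wells.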 Not given: the dose of the treatment.

- Screen: 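Looking for CRAC channel components and the factors controlling them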 (primary screen)
- Cell system: Drosophila S2R+ cells
- Knock-down reagent: long dsRNA against Drosophila genes, about 0.25 µg dsRNA per well, roughly 10,000 cells
- Timing: 5 days of knock-down before the calcium assay
- Conditions: thapsigargin (SERCA pump blocker) to empty calcium stores; entry signal taken 4 min after adding it
- Detection: 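Duplicate raw fluo-4 intensities per well from a plate reader, at rest and four minutes after thapsigargin emptied calcium stores; entry-to-rest ratio filled for only some wells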
- Scale: calcium entry signal: higher = stronger calcium signal after store depletion; entry to resting ratio: higher = more calcium entry relative to resting level; resting calcium signal: higher = higher resting calcium signal
- Hit rule: 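Called when the plate z-score of the entry-to-rest ratio, mean of duplicates, falls below −3; wells with low overall dye signal (Fmax z below −2) or more than five off-targets excluded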
- Meaning of the calls: active = strongly reduced calcium entry; inactive = no strong reduction

Gene | amplicon | calcium entry signal, replicate 1 (fluorescence units) | calcium entry signal, replicate 2 (fluorescence units) | entry to resting ratio | resting calcium signal, replicate 1 (fluorescence units) | resting calcium signal, replicate 2 (fluorescence units) | call
Tango14 (GeneID 33298) | DRSC00667 | 3.62e7 | 3.45e7 | – | 1.73e7 | 1.57e7 | inactive
CG32280 (GeneID 317952) | DRSC08024 | 3.56e7 | 2.97e7 | – | 1.51e7 | 1.38e7 | inactive
Cpr67Fb (GeneID 39225) | DRSC10314 | 2.56e7 | 3.11e7 | – | 1.26e7 | 1.48e7 | inactive
CG31200 (GeneID 326124) | DRSC15285 | 4.26e7 | 5.34e7 | – | 6.92e7 | 2.41e7 | inactive
CG33136 (GeneID 318894) | DRSC05744 | 3.14e7 | 4.22e7 | – | 1.36e7 | 2.09e7 | inactive
CG17163 (GeneID 3354988) | DRSC20901 | 4.19e7 | 4.28e7 | – | 2.17e7 | 1.97e7 | inactive
CG13634 (GeneID 42951) | DRSC14635 | 3.52e7 | 4.12e7 | – | 1.60e7 | 1.69e7 | inactive
CG34436 (GeneID 5740743) | DRSC15164 | 3.19e7 | 4.47e7 | – | 1.71e7 | 2.01e7 | inactive
CG13442 (GeneID 37349) | DRSC06402 | 2.56e7 | 2.83e7 | – | 1.28e7 | 1.29e7 | inactive
wa-cup (GeneID 40892) | DRSC12511 | 2.50e7 | 2.26e7 | – | 1.30e7 | 1.09e7 | inactive
Pglym87 (GeneID 46246) | DRSC15252 | 4.01e7 | 5.06e7 | – | 1.81e7 | 2.32e7 | inactive
CG6479 (GeneID 39930) | DRSC10647 | 3.66e7 | 4.02e7 | – | 1.76e7 | 2.65e7 | inactive
CG12942 (GeneID 36158) | DRSC06253 | 2.04e7 | 2.35e7 | – | 1.06e7 | 1.25e7 | inactive
CG32487 (GeneID 38358) | DRSC21745 | 3.30e7 | 3.78e7 | – | 1.82e7 | 1.74e7 | inactive
B-H2 (GeneID 32723) | DRSC19335 | 2.49e7 | 2.01e7 | – | 1.64e7 | 1.20e7 | inactive
B-H2 (GeneID 32723) | DRSC23012 | 4.27e7 | 3.88e7 | – | 1.83e7 | 1.65e7 | inactive
Jon66Ci (GeneID 38952) | DRSC10772 | 2.41e7 | 3.47e7 | – | 1.14e7 | 1.54e7 | inactive
Mul1 (GeneID 38472) | DRSC08174 | 4.02e7 | 4.99e7 | – | 1.90e7 | 2.07e7 | inactive
PIG-K (GeneID 31163) | DRSC18496 | 3.81e7 | 6.24e7 | 2.1 | 1.79e7 | 2.19e7 | inactive
Ubc7 (GeneID 44054) | DRSC20299 | 2.60e7 | 2.48e7 | – | 1.41e7 | 1.24e7 | inactive
Cht12 (GeneID 246535) | DRSC03844 | 3.35e7 | 6.96e7 | – | 1.53e7 | 2.93e7 | inactive
Obp56h (GeneID 37271) | DRSC06433 | 4.60e7 | 4.85e7 | – | 2.23e7 | 2.62e7 | inactive
Rh7 (GeneID 39389) | DRSC10529 | 5.23e7 | 4.28e7 | – | 3.63e7 | 1.80e7 | inactive
CG14113 (GeneID 50287) | DRSC10116 | 3.46e7 | 4.80e7 | – | 1.71e7 | 2.13e7 | inactive
CG31259 (GeneID 41010) | DRSC14366 | 4.18e7 | 3.29e7 | – | 2.13e7 | 1.63e7 | inactive
Cisd2 (GeneID 43459) | DRSC14904 | 3.63e7 | 4.85e7 | – | 1.75e7 | 2.00e7 | inactive
CG14762 (GeneID 35768) | DRSC05073 | 3.32e7 | 5.95e7 | – | 1.63e7 | 2.62e7 | inactive
CG14762 (GeneID 35768) | DRSC06496 | 4.18e7 | 4.21e7 | – | 2.02e7 | 2.04e7 | inactive
RasGAP1 (GeneID 39158) | DRSC11172 | 3.17e7 | 4.89e7 | – | 1.60e7 | 2.19e7 | inactive
Flacc (GeneID 32886) | DRSC20040 | 3.71e7 | 3.89e7 | – | 1.74e7 | 1.71e7 | inactive
ppk3 (GeneID 246504) | DRSC04275 | 3.50e7 | 4.77e7 | – | 1.80e7 | 2.10e7 | inactive
CG42397 (GeneID 8673976) | DRSC09147 | 4.65e7 | 4.86e7 | – | 2.63e7 | 2.08e7 | inactive
mus302 (GeneID 39874) | DRSC09905 | 4.15e7 | 7.46e7 | – | 2.02e7 | 2.74e7 | inactive
PIP5K59B (GeneID 37633) | DRSC04290 | 3.78e7 | – | – | 2.01e7 | – | inactive
PIP5K59B (GeneID 37633) | DRSC04403 | 3.66e7 | 4.40e7 | – | 1.97e7 | 2.16e7 | inactive
Liprin-beta (GeneID 39524) | DRSC09795 | 2.88e7 | 4.25e7 | – | 1.60e7 | 2.05e7 | inactive
Liprin-beta (GeneID 39524) | DRSC23339 | 4.02e7 | 2.80e7 | – | 2.28e7 | 1.31e7 | inactive
Ir20a (GeneID 33126) | DRSC20506 | 5.26e7 | 4.19e7 | – | 2.33e7 | 1.78e7 | inactive
CG18731 (GeneID 59246) | DRSC15377 | 4.88e7 | 4.68e7 | – | 2.29e7 | 1.90e7 | inactive
mAcon2 (GeneID 41326) | DRSC15629 | 2.42e7 | 2.43e7 | – | 1.31e7 | 1.29e7 | inactive

No new results follow: entries from further up.
Gene | amplicon | calcium entry signal, replicate 1 (fluorescence units) | calcium entry signal, replicate 2 (fluorescence units) | entry to resting ratio | resting calcium signal, replicate 1 (fluorescence units) | resting calcium signal, replicate 2 (fluorescence units) | call
Liprin-beta (GeneID 39524) | DRSC09795 | 2.88e7 | 4.25e7 | – | 1.60e7 | 2.05e7 | inactive
Liprin-beta (GeneID 39524) | DRSC23339 | 4.02e7 | 2.80e7 | – | 2.28e7 | 1.31e7 | inactive
Ir20a (GeneID 33126) | DRSC20506 | 5.26e7 | 4.19e7 | – | 2.33e7 | 1.78e7 | inactive
CG18731 (GeneID 59246) | DRSC15377 | 4.88e7 | 4.68e7 | – | 2.29e7 | 1.90e7 | inactive
mAcon2 (GeneID 41326) | DRSC15629 | 2.42e7 | 2.43e7 | – | 1.31e7 | 1.29e7 | inactive
